For the assay, the target named is CD86-mIgG (Ancell, Inc) (UniProt P42081). The assay can be described thus: SPR, CD86-mIgG immobilized. On the technique in general: SPR reads the build-up and loss of mass on a sensor chip optically.

Chains of the proteins cited; added tags and fusions are not shown. Residues count along the entry.
UniProt P42081, residues 24-247: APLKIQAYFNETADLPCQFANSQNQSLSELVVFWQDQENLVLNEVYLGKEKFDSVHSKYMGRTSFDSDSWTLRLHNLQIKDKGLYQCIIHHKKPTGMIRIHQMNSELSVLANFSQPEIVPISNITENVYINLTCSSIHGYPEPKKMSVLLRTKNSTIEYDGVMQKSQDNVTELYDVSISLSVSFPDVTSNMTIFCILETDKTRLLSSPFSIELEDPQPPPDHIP

This passage reports binding results from patent US20120100139A1 (APTEVO RESEARCH AND DEVELOPMENT, published 2012).

Results are given in words; binding and its absence hold for the method and conditions named. Some binding calls cover weakened binding; strength is not graded here.

B1: FUN1 mAb (parent murine anti-CD86 monoclonal antibody) (antibody, V domains shown)
VH: EVQLQQSGPELEKPGASVKISCKASGYSFTDYNMNWVKQSNGKSLEWIGNIDPYYGGTSYNQKFKGKATLTVDKSSSTAYMQLNSLTSEDSAVYFCARWDYRYDDGRAYYVMDFWGQGTSVTVSS
VL: ELQMTQSPSSLAASAGEKVTMSCKSSQSVLYSSNQKNYLAWYQQKPGQSPKLLIYWASTRESGVPDRFTGSGSGTHFTLTVSSVQAEDLAVYYCHQYLYSWTFGGGTNLEIKR
notes: Murine monoclonal antibody; also called FUN1 antibody
Regarding B1, the binding entry is on record as “binds”.
